Measured values as given in PMC9627669.
No constants are given. Whether binding was seen depends on the method and setting. Binding seen in cells or lysates may run through a third protein. Some binding calls cover weakened binding; strength is not graded here.

The chains behind the UniProt entries cited, without tags or fusion partners. Where a name states a change or a piece, a line headed by the entry shows the natural chain unless it says otherwise.
UniProt Q99816: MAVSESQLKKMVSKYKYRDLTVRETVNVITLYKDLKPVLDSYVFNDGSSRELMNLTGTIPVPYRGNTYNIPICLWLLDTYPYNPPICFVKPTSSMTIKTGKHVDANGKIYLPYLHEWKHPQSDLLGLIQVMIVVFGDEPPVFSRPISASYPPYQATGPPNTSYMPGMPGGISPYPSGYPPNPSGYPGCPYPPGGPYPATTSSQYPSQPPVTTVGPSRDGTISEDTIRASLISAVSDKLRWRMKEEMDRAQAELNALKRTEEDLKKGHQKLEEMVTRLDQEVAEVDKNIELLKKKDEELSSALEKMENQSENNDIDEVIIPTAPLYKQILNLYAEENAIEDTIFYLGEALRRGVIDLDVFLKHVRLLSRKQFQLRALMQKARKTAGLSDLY
UniProt P09874: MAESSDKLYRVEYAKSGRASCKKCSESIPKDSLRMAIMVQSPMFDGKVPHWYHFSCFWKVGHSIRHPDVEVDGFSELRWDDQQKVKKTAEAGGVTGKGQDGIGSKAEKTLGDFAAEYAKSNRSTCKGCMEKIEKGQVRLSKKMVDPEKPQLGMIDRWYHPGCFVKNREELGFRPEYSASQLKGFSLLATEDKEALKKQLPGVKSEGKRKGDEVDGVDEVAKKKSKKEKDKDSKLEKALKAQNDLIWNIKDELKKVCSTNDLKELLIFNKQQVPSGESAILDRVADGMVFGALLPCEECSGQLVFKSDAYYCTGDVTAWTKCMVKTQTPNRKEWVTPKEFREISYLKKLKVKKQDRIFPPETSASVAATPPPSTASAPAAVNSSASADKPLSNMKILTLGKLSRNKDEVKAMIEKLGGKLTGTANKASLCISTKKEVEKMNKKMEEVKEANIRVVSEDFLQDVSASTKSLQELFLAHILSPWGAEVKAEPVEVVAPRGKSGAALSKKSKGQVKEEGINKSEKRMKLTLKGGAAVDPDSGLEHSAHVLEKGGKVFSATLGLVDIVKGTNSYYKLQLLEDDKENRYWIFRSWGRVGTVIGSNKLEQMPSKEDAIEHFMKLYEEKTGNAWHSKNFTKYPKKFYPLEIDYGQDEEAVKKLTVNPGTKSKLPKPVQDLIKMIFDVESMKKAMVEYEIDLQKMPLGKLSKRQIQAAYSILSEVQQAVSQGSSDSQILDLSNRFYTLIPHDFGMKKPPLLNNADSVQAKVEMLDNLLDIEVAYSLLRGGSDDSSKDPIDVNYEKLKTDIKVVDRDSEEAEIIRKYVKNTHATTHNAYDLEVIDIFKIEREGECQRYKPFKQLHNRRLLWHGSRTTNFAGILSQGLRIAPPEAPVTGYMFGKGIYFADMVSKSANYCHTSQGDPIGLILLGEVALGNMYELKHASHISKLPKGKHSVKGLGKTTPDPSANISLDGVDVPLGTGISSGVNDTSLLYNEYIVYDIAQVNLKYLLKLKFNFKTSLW

Columns and labels:
[1] = molecular target: full-length mCherry-tagged TSG101 (UniProt Q99816); experiment: co-IP; immunoprecipitation of mCherry from whole-cell extracts of U2-OS cells transfected with full-length mCherry-TSG101; with or without irradiation (20 Gy, 45 min before analysis)
[2] = molecular target: Poly(ADP-ribose) polymerase 1 (PARP1), endogenous (human (endogenous in U2-OS)) (UniProt P09874); experiment: proximity ligation; DuoLink PLA with PARP1 and TSG101 primary antibodies in fixed, permeabilised U2-OS cells; unstimulated, etoposide (50 uM, 10 min), or etoposide plus olaparib (10 uM, 24 h)
EGFP-tagged PARP1 = EGFP-tagged PARP1 (UniProt P09874); experiment: co-IP; GFP-trap immunoprecipitation of EGFP-PARP1 from whole-cell extracts (RIPA buffer) of U2-OS cells cotransfected with mCherry-tagged TSG101 deletion constructs

For “Poly(ADP-ribose) polymerase 1 (PARP1), endogenous (from UniProt P09874 1-1014) (enzyme)”, the binding [1] was “binds”.
For “TSG101 (tumor susceptibility gene 101 product), endogenous (from UniProt Q99816 1-390)”, the binding [2] was “binds”.
With “UEV domain of TSG101 (from UniProt Q99816 2-145) (domain or fragment)” the binding (EGFP-tagged PARP1) was “no binding”.
